# Results published in PMC3260263, “Structural Characterization of a Novel Chlamydia pneumoniae Type III Secretion-Associated Protein, Cpn0803” (PLoS ONE, 2012).
# T1: GST-Cpn0803_(1–50) (Chlamydia pneumoniae CWL029) (UniProt Q9Z7A3)
# T1 sequence: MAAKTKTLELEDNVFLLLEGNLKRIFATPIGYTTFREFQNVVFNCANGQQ
# T2: GST-Cpn0803_(120–180) (Chlamydia pneumoniae CWL029) (UniProt Q9Z7A3)
# T2 sequence: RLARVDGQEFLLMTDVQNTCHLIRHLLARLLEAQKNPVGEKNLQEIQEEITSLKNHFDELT
# B1: native Cpn0803 (protein, UniProt Q9Z7A3 1-184)
# chain: MAAKTKTLELEDNVFLLLEGNLKRIFATPIGYTTFREFQNVVFNCANGQQEIANFFFEMLINGKLTQELAPQQKQAAHSLIAEFMMPIRVAKDIHERGEFINFITSDMLTQQERCIFLNRLARVDGQEFLLMTDVQNTCHLIRHLLARLLEAQKNPVGEKNLQEIQEEITSLKNHFDELTKALQ
# B2: His-Cpn0803 (natural protein)
# chain: B1 chain
# notes: Cpn0803 of Chlamydia pneumoniae CWL029 (ortholog of C. trachomatis CT584), 184 amino acids; Hexamer and dimer in solution by gel filtration; a SeMet derivative was used for phasing only; also called recombinant His-Cpn0803; full-length Cpn0803; source: E. coli, over-expressed, in lysate (glutathione plate assay, GST pull-down); E. coli, purified on a column eluted with 300 mM imidazole …
# Tests used:
# [1] = molecular target: T1, GST-Cpn0803_(1–50) (Chlamydia pneumoniae CWL029); assay: pull-down; GST-tagged protein (50 ng) on glutathione-agarose beads incubated overnight at 4°C with E. coli lysate expressing the His-tagged protein; washed with 0.1% Triton X-100 and increasing NaCl (500 mM, high salt); anti-His Western blot; only the target purified
# [2] = molecular target: T2, GST-Cpn0803_(120–180) (Chlamydia pneumoniae CWL029); assay: as above
# [3] = molecular target: GST-CdsF (Chlamydia pneumoniae CWL029); assay: pull-down; C. pneumoniae EB lysate (PBS, 1% Triton X-100) incubated with recombinant GST-tagged proteins for 6 h, glutathione agarose beads overnight; washed with 500 mM NaCl; Western blot with anti-Cpn0803; only the target purified
# [4] = molecular target: GST-CdsN (Chlamydia pneumoniae CWL029); assay: as above
# [5] = molecular target: GST-CdsQ (Chlamydia pneumoniae CWL029); assay: as above
# [6] = molecular target: GST-CdsF (Chlamydia pneumoniae CWL029); assay: pull-down; GST-tagged protein (50 ng) on glutathione-agarose beads incubated overnight at 4°C with E. coli lysate expressing the His-tagged protein; washed with 0.1% Triton X-100 and increasing NaCl (500 mM, high salt); anti-His Western blot; only the target purified
# [7] = molecular target: GST-CdsN (Chlamydia pneumoniae CWL029); assay: as above
# [8] = molecular target: GST-CdsQ (Chlamydia pneumoniae CWL029); assay: as above
molecule,measurement,setting,value
His-CdsN (Chlamydia pneumoniae CWL029) (enzyme),binding,[1],binds
same,binding,[2],no binding
His-CdsQ (Chlamydia pneumoniae CWL029),binding,[1],no binding
same,binding,[2],binds
B1,binding,[3],binds
same,binding,[4],binds
same,binding,[5],binds
B2,binding,[6],binds
same,binding,[7],binds
same,binding,[8],binds

# Results are given in words; binding and its absence hold for the method and conditions named. Binding seen in cells or lysates may run through a third protein. Binding can be weak; no strength is given. For some of these results: Where a sequence is shown, tags or fusion partners need not be part of it.
